# Experimental data as given in the supplement of paper PMC8728848.
# The list shows a part of the results.
# B1: S100A12 (Homo sapiens), P80511 (protein)
# chain: MTKLEEHLEGIVNIFHQYSVRKGHFDTLSKGELKQLLTKELANTIKNIKDKAVIDEIFQGLDANQDEQVDFQEFISLVAIALKAAHYHTHKE
# Key:
# Assay in all cases: glycan array binding signal (z-score within array); higher = stronger binding
# Conditions in all cases: glycan notation: IUPAC condensed, linker removed
# [1] = target: Fuc(a1-3)[Gal3S(b1-4)]Glc
# Method in brief: (§1)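 Glycan array data were curated from 3228 arrays in the Consortium for Functional Glycomics database and kept only where the protein sequence was available. Glycan names were converted to IUPAC-condensed notation, and columns mapping to the same glycan were averaged. The binding signal is a within-array Z-score, averaged across arrays of the same protein sequence at different concentrations or buffers and across linkers. Negative Z-scores can be read as non-binding.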
# [2] = target: Fuc(a1-3)[Gal3S(b1-4)]Glc6S
# Method in brief: as §1
# [3] = target: Fuc(a1-3)[Gal3S(b1-4)]GlcNAc
# Method in brief: as §1
# [4] = target: Fuc(a1-3)[Gal3S(b1-4)]GlcNAc6S
# Method in brief: as §1
# [5] = target: Fuc(a1-3)[GalNAc(b1-4)]Gal(b1-4)GlcNAc
# Method in brief: as §1
# [6] = target: Fuc(a1-3)[GalNAc(b1-4)]GlcNAc
# Method in brief: as §1
# Fuc(a1-4)GlcNAc = target: Fuc(a1-4)GlcNAc
# Method in brief: as §1
# Fuc(b1-3)GlcNAc = target: Fuc(b1-3)GlcNAc
# Method in brief: as §1
# Gal(a1-2)Gal = target: Gal(a1-2)Gal
# Method in brief: as §1
# Gal(a1-3)Gal = target: Gal(a1-3)Gal
# Method in brief: as §1
# Gal(a1-3)Gal(b1-3)Glc = target: Gal(a1-3)Gal(b1-3)Glc
# Method in brief: as §1
# Gal(a1-3)Gal(b1-3)GlcNAc = target: Gal(a1-3)Gal(b1-3)GlcNAc
# Method in brief: as §1
# Gal(a1-3)Gal(b1-4)Glc = target: Gal(a1-3)Gal(b1-4)Glc
# Method in brief: as §1
# Gal(a1-3)Gal(b1-4)GlcNAc = target: Gal(a1-3)Gal(b1-4)GlcNAc
# Method in brief: as §1
# [7] = target: Gal(a1-3)Gal(b1-4)[Fuc(a1-3)]GalNAc
# Method in brief: as §1
# [8] = target: Gal(a1-3)Gal(b1-4)[Fuc(a1-3)]GlcNAc
# Method in brief: as §1
# Gal(a1-3)GalNAc = target: Gal(a1-3)GalNAc
# Method in brief: as §1
# Gal(a1-3)GlcNAc = target: Gal(a1-3)GlcNAc
# Method in brief: as §1
# [9] = target: Gal(a1-3)[Gal(a1-4)]Gal(b1-4)GlcNAc
# Method in brief: as §1
# Gal(a1-4)Gal(b1-4)Gal = target: Gal(a1-4)Gal(b1-4)Gal
# Method in brief: as §1
# Gal(a1-4)Gal(b1-4)GalNAc = target: Gal(a1-4)Gal(b1-4)GalNAc
# Method in brief: as §1
# Gal(a1-4)Gal(b1-4)Glc = target: Gal(a1-4)Gal(b1-4)Glc
# Method in brief: as §1
# Gal(a1-4)Gal(b1-4)GlcNAc = target: Gal(a1-4)Gal(b1-4)GlcNAc
# Method in brief: as §1
# Gal(a1-4)GlcNAc = target: Gal(a1-4)GlcNAc
# Method in brief: as §1
# Gal(a1-6)Glc = target: Gal(a1-6)Glc
# Method in brief: as §1
# Gal(b1-2)Gal = target: Gal(b1-2)Gal
# Method in brief: as §1
# Gal(b1-3)Gal = target: Gal(b1-3)Gal
# Method in brief: as §1
# Gal(b1-3)GalNAc = target: Gal(b1-3)GalNAc
# Method in brief: as §1
# [10] = target: Gal(b1-3)GalNAc(b1-3)Gal(a1-4)Gal(b1-4)Glc
# Method in brief: as §1
# [11] = target: Gal(b1-3)GalNAc(b1-3)Gal(b1-4)Glc
# Method in brief: as §1
# [12] = target: Gal(b1-3)GalNAc(b1-3)Gal(b1-4)GlcNAc
# Method in brief: as §1
# [13] = target: Gal(b1-3)GalNAc(b1-4)Gal(b1-4)Glc
# Method in brief: as §1
# [14] = target: Gal(b1-3)GalNAc(b1-4)[Neu5Ac(a2-3)]Gal(b1-4)Glc
# Method in brief: as §1
# Gal(b1-3)GlcNAc = target: Gal(b1-3)GlcNAc
# Method in brief: as §1
# [15] = target: Gal(b1-3)GlcNAc(b1-3)Gal(b1-3)GlcNAc
# Method in brief: as §1
# [16] = target: Gal(b1-3)GlcNAc(b1-3)Gal(b1-4)Glc
# Method in brief: as §1
# [17] = target: Gal(b1-3)GlcNAc(b1-3)Gal(b1-4)GlcNAc
# Method in brief: as §1
# [18] = target: Gal(b1-3)[Fuc(a1-4)]GlcNAc
# Method in brief: as §1
# [19] = target: Gal(b1-3)[Fuc(a1-4)]GlcNAc(b1-3)Gal(b1-3)[Fuc(a1-4)]GlcNAc
# Method in brief: as §1
# [20] = target: Gal(b1-3)[Fuc(a1-4)]GlcNAc(b1-3)Gal(b1-4)GlcNAc
# Method in brief: as §1
# [21] = target: Gal(b1-3)[Fuc(a1-4)]GlcNAc(b1-3)Gal(b1-4)[Fuc(a1-3)]GlcNAc
# Method in brief: as §1
# [22] = target: Gal(b1-3)[GlcNAc(b1-6)]GalNAc
# Method in brief: as §1
# [23] = target: Gal(b1-3)[GlcNAc(b1-6)]GlcNAc
# Method in brief: as §1
# [24] = target: Gal(b1-3)[Neu5Ac(a2-6)]GalNAc
# Method in brief: as §1
# [25] = target: Gal(b1-3)[Neu5Ac(a2-6)]GlcNAc
# Method in brief: as §1
binder,measurement,setting,value
B1,glycan array binding signal (z-score),[1],-0.478
same,glycan array binding signal (z-score),[2],0.196
same,glycan array binding signal (z-score),[3],-0.314
same,glycan array binding signal (z-score),[4],1.46
same,glycan array binding signal (z-score),[5],-0.441
same,glycan array binding signal (z-score),[6],-0.602
same,glycan array binding signal (z-score),Fuc(a1-4)GlcNAc,-0.046
same,glycan array binding signal (z-score),Fuc(b1-3)GlcNAc,-0.352
same,glycan array binding signal (z-score),Gal(a1-2)Gal,0.006
same,glycan array binding signal (z-score),Gal(a1-3)Gal,-0.12
same,glycan array binding signal (z-score),Gal(a1-3)Gal(b1-3)Glc,-0.158
same,glycan array binding signal (z-score),Gal(a1-3)Gal(b1-3)GlcNAc,-0.683
same,glycan array binding signal (z-score),Gal(a1-3)Gal(b1-4)Glc,-1.47
same,glycan array binding signal (z-score),Gal(a1-3)Gal(b1-4)GlcNAc,-0.667
same,glycan array binding signal (z-score),[7],-0.451
same,glycan array binding signal (z-score),[8],-1.07
same,glycan array binding signal (z-score),Gal(a1-3)GalNAc,-0.788
same,glycan array binding signal (z-score),Gal(a1-3)GlcNAc,-0.251
same,glycan array binding signal (z-score),[9],-0.604
same,glycan array binding signal (z-score),Gal(a1-4)Gal(b1-4)Gal,0.185
same,glycan array binding signal (z-score),Gal(a1-4)Gal(b1-4)GalNAc,-0.119
same,glycan array binding signal (z-score),Gal(a1-4)Gal(b1-4)Glc,0.145
same,glycan array binding signal (z-score),Gal(a1-4)Gal(b1-4)GlcNAc,-0.446
same,glycan array binding signal (z-score),Gal(a1-4)GlcNAc,-0.268
same,glycan array binding signal (z-score),Gal(a1-6)Glc,0.773
same,glycan array binding signal (z-score),Gal(b1-2)Gal,-0.083
same,glycan array binding signal (z-score),Gal(b1-3)Gal,-0.262
same,glycan array binding signal (z-score),Gal(b1-3)GalNAc,-0.254
same,glycan array binding signal (z-score),[10],-0.547
same,glycan array binding signal (z-score),[11],-0.286
same,glycan array binding signal (z-score),[12],-0.39
same,glycan array binding signal (z-score),[13],-0.592
same,glycan array binding signal (z-score),[14],-0.75
same,glycan array binding signal (z-score),Gal(b1-3)GlcNAc,-0.781
same,glycan array binding signal (z-score),[15],-0.702
same,glycan array binding signal (z-score),[16],-0.959
same,glycan array binding signal (z-score),[17],-0.762
same,glycan array binding signal (z-score),[18],-0.707
same,glycan array binding signal (z-score),[19],-0.544
same,glycan array binding signal (z-score),[20],-0.319
same,glycan array binding signal (z-score),[21],-0.056
same,glycan array binding signal (z-score),[22],-0.516
same,glycan array binding signal (z-score),[23],-0.491
same,glycan array binding signal (z-score),[24],-0.459
same,glycan array binding signal (z-score),[25],-0.34

# 2 records drawn at random from the list so far, as already listed:
binder,measurement,setting,value
B1,glycan array binding signal (z-score),Fuc(a1-4)GlcNAc,-0.046
same,glycan array binding signal (z-score),Gal(a1-3)Gal(b1-3)GlcNAc,-0.683
